## Drug screen on melanoma cell lines: apoptosis marker

Data from the primary screen of doi:10.1371/journal.pone.0140310, rounded.

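Human melanoma cell lines in 1,536-well plates were treated with two drugs together for 72 h, then fixed, stained and imaged. Each value is the cleaved-PARP-positive fraction of nuclei relative to DMSO-treated wells, in %, so that 100 equals the control and higher values mean more apoptosis. Every drug was used at one fixed concentration, the higher of two screened. No replicate spread is given; individual values may be noisy. The marker varies much from line to line, for technical or biological reasons.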
This is part of the screen, not chosen by result.
An entry leaves out what has no value listed here.

Every entry is a combination with ruxolitinib at 5 µM: N#CC[C@H](C1CCCC1)n1cc(-c2ncnc3[nH]ccc23)cn1

Compounds and concentrations:
PD173074: CCN(CC)CCCCNc1ncc2cc(-c3cc(OC)cc(OC)c3)c(NC(=O)NC(C)(C)C)nc2n1 at 0.5 µM
nutlin-3: COc1ccc(C2=N[C@@H](c3ccc(Cl)cc3)[C@@H](c3ccc(Cl)cc3)N2C(=O)N2CCNC(=O)C2)c(OC(C)C)c1 at 0.5 µM
VX-702: NC(=O)c1ccc(N(C(N)=O)c2c(F)cccc2F)nc1-c1ccc(F)cc1F at 2 µM
docetaxel: CC(=O)O[C@@]12CO[C@@H]1C[C@H](O)[C@@]1(C)C(=O)[C@H](O)C3=C(C)[C@@H](OC(=O)[C@H](O)[C@@H](NC(=O)OC(C)(C)C)c4ccccc4)C[C@@](O)([C@@H](OC(=O)c4ccccc4)[C@H]21)C3(C)C at 0.0005 µM
TCS401: O=C(O)C(=O)Nc1sc2c(c1C(=O)O)CCNC2 at 8.33 µM
L-779450: Oc1cc(-c2nc(-c3ccccc3)[nH]c2-c2ccncc2)ccc1Cl at 1 µM
OSI-906: C[C@]1(O)C[C@@H](c2nc(-c3ccc4ccc(-c5ccccc5)nc4c3)c3c(N)nccn32)C1 at 2 µM
CHIR-265: Cn1c(Nc2ccc(C(F)(F)F)cc2)nc2cc(Oc3ccnc(-c4ncc(C(F)(F)F)[nH]4)c3)ccc21 at 0.4 µM
BMS-536924: Cc1cc(N2CCOCC2)cc2[nH]c(-c3c(NC[C@@H](O)c4cccc(Cl)c4)cc[nH]c3=O)nc12 at 1 µM
SNS-032: CC(C)(C)c1cnc(CSc2cnc(NC(=O)C3CCNCC3)s2)o1 at 0.05 µM
embelin: CCCCCCCCCCCC1=C(O)C(=O)C=C(O)C1=O at 6 µM
gemcitabine: Nc1ccn([C@@H]2O[C@H](CO)[C@@H](O)C2(F)F)c(=O)n1 at 0.002 µM
enzastaurin: Cn1cc(C2=C(c3cn(C4CCN(Cc5ccccn5)CC4)c4ccccc34)C(=O)NC2=O)c2ccccc21 at 4 µM
decitabine: Nc1ncn([C@H]2C[C@H](O)[C@@H](CO)O2)c(=O)n1 at 0.5 µM
dorsomorphin: c1cc(-c2cnn3cc(-c4ccc(OCCN5CCCCC5)cc4)cnc23)ccn1 at 2 µM
GSK650394: O=C(O)c1ccc(-c2c[nH]c3ncc(-c4ccccc4)cc23)cc1C1CCCC1 at 0.8 µM
lestaurtinib: C[C@]12O[C@H](C[C@]1(O)CO)n1c3ccccc3c3c4c(c5c6ccccc6n2c5c31)CNC4=O at 0.02 µM
indole-3-carbinol: OCc1c[nH]c2ccccc12 at 4 µM
GW0742: Cc1cc(SCc2sc(-c3ccc(C(F)(F)F)c(F)c3)nc2C)ccc1OCC(=O)O at 10 µM
perifosine: CCCCCCCCCCCCCCCCCCOP(=O)([O-])OC1CC[N+](C)(C)CC1 at 2 µM
vatalanib: Clc1ccc(Nc2nnc(Cc3ccncc3)c3ccccc23)cc1 at 10 µM
tozasertib: Cc1cc(Nc2cc(N3CCN(C)CC3)nc(Sc3ccc(NC(=O)C4CC4)cc3)n2)n[nH]1 at 0.03 µM
nilutamide: CC1(C)NC(=O)N(c2ccc([N+](=O)[O-])c(C(F)(F)F)c2)C1=O at 5 µM
selumetinib: Cn1cnc2c(F)c(Nc3ccc(Br)cc3Cl)c(C(=O)NOCCO)cc21 at 0.075 µM
cediranib: COc1cc2c(Oc3ccc4[nH]c(C)cc4c3F)ncnc2cc1OCCCN1CCCC1 at 2 µM
crizotinib: C[C@@H](Oc1cc(-c2cnn(C3CCNCC3)c2)cnc1N)c1c(Cl)ccc(F)c1Cl at 1 µM
FH535: Cc1cc([N+](=O)[O-])ccc1NS(=O)(=O)c1cc(Cl)ccc1Cl at 5 µM
AZD7762: NC(=O)Nc1cc(-c2cccc(F)c2)sc1C(=O)N[C@H]1CCCNC1 at 0.1 µM
GSK0660: COC(=O)c1sccc1S(=O)(=O)Nc1ccc(Nc2ccccc2)cc1OC at 5 µM
A-769662: N#Cc1c(O)c2c(-c3ccc(-c4ccccc4O)cc3)csc2[nH]c1=O at 10 µM
LFM-A13: C/C(O)=C(\C#N)C(=O)Nc1cc(Br)ccc1Br at 10 µM
AS-252424: O=C1NC(=O)/C(=C/c2ccc(-c3ccc(F)cc3O)o2)S1 at 5 µM
IMD-0354: O=C(Nc1cc(C(F)(F)F)cc(C(F)(F)F)c1)c1cc(Cl)ccc1O at 0.08 µM
bexarotene: C=C(c1ccc(C(=O)O)cc1)c1cc2c(cc1C)C(C)(C)CCC2(C)C at 10 µM
fingolimod: CCCCCCCCc1ccc(CCC(N)(CO)CO)cc1 at 10 µM
temozolomide: Cn1nnc2c(C(N)=O)ncn2c1=O at 10 µM
ABT-263: CC1(C)CCC(c2ccc(Cl)cc2)=C(CN2CCN(c3ccc(C(=O)NS(=O)(=O)c4ccc(N[C@H](CCN5CCOCC5)CSc5ccccc5)c(S(=O)(=O)C(F)(F)F)c4)cc3)CC2)C1 at 2 µM
KU-55933: O=c1cc(-c2cccc3c2Sc2ccccc2S3)oc(N2CCOCC2)c1 at 5 µM
tipifarnib: Cn1cncc1[C@@](N)(c1ccc(Cl)cc1)c1ccc2c(c1)c(-c1cccc(Cl)c1)cc(=O)n2C at 0.05 µM

BMS-536924 gave COLO 829: 133; SK-MEL-2: 134; WM451Lu: 106; COLO 800: 153; LOX IMVI: 66.6; IPC-298: 89.8. nutlin-3 gave COLO 829: 167; SK-MEL-2: 57.3; WM451Lu: 60.7; COLO 800: 20.6; LOX IMVI: 135; IPC-298: 131. bexarotene gave COLO 829: 138; SK-MEL-2: 83.6; WM451Lu: 261; COLO 800: 19.6; LOX IMVI: 53.3; IPC-298: 187. For nilutamide the values were COLO 829: 103; SK-MEL-2: 151; WM451Lu: 374; COLO 800: 63.7; LOX IMVI: 116; IPC-298: 78.3.

Results for IMD-0354 are COLO 829: 88.1; SK-MEL-2: 184; WM451Lu: 200; COLO 800: 124; LOX IMVI: 57.2; IPC-298: 58.7. For LFM-A13 the values were COLO 829: 130; SK-MEL-2: 102; WM451Lu: 37.9; COLO 800: 67.2; LOX IMVI: 88.7; IPC-298: 43.6. With fingolimod the screen read COLO 829: 268; SK-MEL-2: 4790; WM451Lu: 1050; COLO 800: 378; LOX IMVI: 839; IPC-298: 363. Results for cediranib are COLO 829: 85.5; SK-MEL-2: 42.7; WM451Lu: 119; COLO 800: 137; LOX IMVI: 214; IPC-298: 45.2.

With enzastaurin the screen read COLO 829: 173; SK-MEL-2: 57.1; WM451Lu: 125; COLO 800: 147; LOX IMVI: 55.1; IPC-298: 117. With SNS-032 the screen read COLO 829: 156; SK-MEL-2: 127; WM451Lu: 434; COLO 800: 60.5; LOX IMVI: 98.5; IPC-298: 134. Results for decitabine are COLO 829: 300; SK-MEL-2: 208; WM451Lu: 153; COLO 800: 179; LOX IMVI: 73.2; IPC-298: 200. Results for gemcitabine are COLO 829: 695; SK-MEL-2: 29.3; WM451Lu: 224; COLO 800: 108; LOX IMVI: 347; IPC-298: 176.

With AS-252424 the screen read COLO 829: 119; SK-MEL-2: 115; WM451Lu: 33.9; COLO 800: 180; LOX IMVI: 216; IPC-298: 38.7. With CHIR-265 the screen read COLO 829: 153; SK-MEL-2: 253; WM451Lu: 83.5; COLO 800: 68.8; LOX IMVI: 142; IPC-298: 128. Results for dorsomorphin are COLO 829: 128; WM451Lu: 56.4; COLO 800: 168; LOX IMVI: 132; IPC-298: 39.5. For embelin the values were COLO 829: 92.0; SK-MEL-2: 94.5; WM451Lu: 46.7; COLO 800: 85.0; LOX IMVI: 178; IPC-298: 57.7.

Results for tipifarnib are COLO 829: 129; SK-MEL-2: 45.4; WM451Lu: 118; COLO 800: 64.9; LOX IMVI: 114; IPC-298: 68.2. With perifosine the screen read COLO 829: 114; SK-MEL-2: 78.2; WM451Lu: 313; COLO 800: 75.5; LOX IMVI: 133; IPC-298: 143. FH535 gave COLO 829: 66.7; SK-MEL-2: 35.3; WM451Lu: 36.2; COLO 800: 113; LOX IMVI: 412; IPC-298: 175. indole-3-carbinol gave COLO 829: 144; SK-MEL-2: 194; WM451Lu: 45.3; COLO 800: 51.7; LOX IMVI: 63.7; IPC-298: 256.

Results for AZD7762 are COLO 829: 211; SK-MEL-2: 190; WM451Lu: 314; COLO 800: 87.6; LOX IMVI: 100; IPC-298: 140. VX-702 gave COLO 829: 179; SK-MEL-2: 60.6; WM451Lu: 31.0; COLO 800: 172; LOX IMVI: 130; IPC-298: 143. With GSK650394 the screen read COLO 829: 133; SK-MEL-2: 241; WM451Lu: 76.6; COLO 800: 103; LOX IMVI: 335; IPC-298: 85.1. For lestaurtinib the values were COLO 829: 122; SK-MEL-2: 141; WM451Lu: 146; COLO 800: 66.5; LOX IMVI: 83.8; IPC-298: 220.

With ABT-263 the screen read COLO 829: 83.6; SK-MEL-2: 111; WM451Lu: 43.0; COLO 800: 66.4; LOX IMVI: 63.4; IPC-298: 109. With PD173074 the screen read COLO 829: 120; SK-MEL-2: 105; WM451Lu: 133; COLO 800: 72.3; LOX IMVI: 95.4; IPC-298: 86.7. With crizotinib the screen read COLO 829: 132; SK-MEL-2: 49.1; WM451Lu: 208; COLO 800: 164; LOX IMVI: 31.9; IPC-298: 52.6. GSK0660 gave COLO 829: 146; SK-MEL-2: 79.9; WM451Lu: 79.4; COLO 800: 63.3; LOX IMVI: 223; IPC-298: 77.5.

For KU-55933 the values were COLO 829: 116; SK-MEL-2: 49.5; WM451Lu: 94.3; COLO 800: 97.4; LOX IMVI: 91.6; IPC-298: 93.2. Results for GW0742 are COLO 829: 164; SK-MEL-2: 146; WM451Lu: 121; COLO 800: 36.3; LOX IMVI: 73.8; IPC-298: 84.7. A-769662 gave COLO 829: 31.7; SK-MEL-2: 84.2; WM451Lu: 220; COLO 800: 35.0; LOX IMVI: 89.9; IPC-298: 83.0. For vatalanib the values were COLO 829: 141; SK-MEL-2: 60.3; WM451Lu: 52.4; COLO 800: 95.4; LOX IMVI: 115; IPC-298: 140.

Results for OSI-906 are COLO 829: 87.5; SK-MEL-2: 154; WM451Lu: 46.7; COLO 800: 91.5; LOX IMVI: 104; IPC-298: 56.3. Results for L-779450 are COLO 829: 33.4; SK-MEL-2: 607; WM451Lu: 466; COLO 800: 37.8; LOX IMVI: 278; IPC-298: 122. docetaxel gave COLO 829: 273; SK-MEL-2: 2240; WM451Lu: 1130; COLO 800: 290; LOX IMVI: 287; IPC-298: 909. For temozolomide the values were COLO 829: 80.1; SK-MEL-2: 53.4; WM451Lu: 61.8; COLO 800: 163; LOX IMVI: 57.4; IPC-298: 57.3.

selumetinib gave COLO 829: 73.8; SK-MEL-2: 182; WM451Lu: 175; COLO 800: 51.3; LOX IMVI: 68.6; IPC-298: 91.5. For tozasertib the values were COLO 829: 163; SK-MEL-2: 125; WM451Lu: 194; COLO 800: 122; LOX IMVI: 235; IPC-298: 375. For TCS401 the values were COLO 829: 96.9; SK-MEL-2: 80.4; WM451Lu: 46.4; COLO 800: 25.3; LOX IMVI: 138; IPC-298: 47.6.

Once more, the final 4:

| Second drug | COLO 829 | SK-MEL-2 | WM451Lu | COLO 800 | LOX IMVI | IPC-298 |
|---|---|---|---|---|---|---|
| temozolomide | 80.1 | 53.4 | 61.8 | 163 | 57.4 | 57.3 |
| selumetinib | 73.8 | 182 | 175 | 51.3 | 68.6 | 91.5 |
| tozasertib | 163 | 125 | 194 | 122 | 235 | 375 |
| TCS401 | 96.9 | 80.4 | 46.4 | 25.3 | 138 | 47.6 |